The assay deals with lymphotoxin beta receptor (human (endogenous in HEK293T)) (UniProt P36941). Kind of assay: co-IP; HEK293T lysate (Pierce IP Lysis Buffer) incubated with anti-TRAF5, anti-LTBR or anti-IgG (negative control) and Dynabeads Protein G at 25 °C overnight; precipitate analysed by western blot.

Protein sequences, listed by entry. Tags and fused reporters are not part of them. Residues count along the entry.
UniProt P36941, residues 31-435: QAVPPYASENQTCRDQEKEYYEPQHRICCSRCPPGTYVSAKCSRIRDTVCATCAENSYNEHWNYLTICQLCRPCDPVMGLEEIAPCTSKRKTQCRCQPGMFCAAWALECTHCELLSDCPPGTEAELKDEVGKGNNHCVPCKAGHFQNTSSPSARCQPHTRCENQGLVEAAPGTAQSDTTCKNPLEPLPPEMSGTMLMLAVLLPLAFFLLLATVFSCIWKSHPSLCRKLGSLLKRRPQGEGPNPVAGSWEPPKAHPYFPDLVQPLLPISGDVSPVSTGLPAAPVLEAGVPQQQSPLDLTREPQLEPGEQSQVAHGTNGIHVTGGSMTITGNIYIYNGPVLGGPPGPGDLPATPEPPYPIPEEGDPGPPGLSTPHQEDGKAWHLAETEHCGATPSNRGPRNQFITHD
UniProt O00463: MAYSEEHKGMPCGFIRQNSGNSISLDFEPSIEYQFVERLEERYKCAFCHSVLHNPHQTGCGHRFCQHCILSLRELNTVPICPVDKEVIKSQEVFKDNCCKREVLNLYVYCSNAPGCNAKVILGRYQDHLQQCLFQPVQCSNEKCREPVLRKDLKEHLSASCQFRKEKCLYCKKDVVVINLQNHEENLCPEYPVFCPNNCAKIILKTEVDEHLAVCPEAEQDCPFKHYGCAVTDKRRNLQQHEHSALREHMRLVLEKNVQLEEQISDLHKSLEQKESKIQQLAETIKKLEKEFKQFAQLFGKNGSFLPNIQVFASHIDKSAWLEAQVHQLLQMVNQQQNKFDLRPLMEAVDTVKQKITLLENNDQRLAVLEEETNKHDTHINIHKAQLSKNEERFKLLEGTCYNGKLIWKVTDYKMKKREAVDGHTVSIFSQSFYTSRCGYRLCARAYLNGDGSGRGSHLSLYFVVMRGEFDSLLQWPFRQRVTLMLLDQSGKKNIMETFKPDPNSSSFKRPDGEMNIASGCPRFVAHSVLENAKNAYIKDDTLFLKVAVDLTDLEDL

These are yes or no findings as the source states them, for the method shown. In cells and extracts the contact can be indirect. Some entries that bind do so weakly or less than the wild type.

For the substance “TNF receptor-associated factor 5 (from UniProt O00463 1-557)”, the binding result was “binds”.

The values above are taken from PMC10290833.
